According to the supplement of paper PMC12823440, “Inhibitors supercharge kinase turnover through native proteolytic circuits” (Nature, 2025):
Counter-ions that a name gives are not always drawn. The list shows a part of the results. Hit calls seldom repeat between salt and free forms of one compound.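 Kinases were expressed as nanoluciferase fusions in K562 cells and luminescence was read every 4 h between 2 and 18 h as percent of control, DMSO set to 100% and a positive control to 0%. A time point counts as decreased when the signal drops significantly (2 sigma). The hit call is the authors' own, does not follow from the count of time points alone, and its rule is not shown.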

The chains behind the UniProt entries cited, without tags or fusion partners.
UniProt P06241, whole entry, looked up: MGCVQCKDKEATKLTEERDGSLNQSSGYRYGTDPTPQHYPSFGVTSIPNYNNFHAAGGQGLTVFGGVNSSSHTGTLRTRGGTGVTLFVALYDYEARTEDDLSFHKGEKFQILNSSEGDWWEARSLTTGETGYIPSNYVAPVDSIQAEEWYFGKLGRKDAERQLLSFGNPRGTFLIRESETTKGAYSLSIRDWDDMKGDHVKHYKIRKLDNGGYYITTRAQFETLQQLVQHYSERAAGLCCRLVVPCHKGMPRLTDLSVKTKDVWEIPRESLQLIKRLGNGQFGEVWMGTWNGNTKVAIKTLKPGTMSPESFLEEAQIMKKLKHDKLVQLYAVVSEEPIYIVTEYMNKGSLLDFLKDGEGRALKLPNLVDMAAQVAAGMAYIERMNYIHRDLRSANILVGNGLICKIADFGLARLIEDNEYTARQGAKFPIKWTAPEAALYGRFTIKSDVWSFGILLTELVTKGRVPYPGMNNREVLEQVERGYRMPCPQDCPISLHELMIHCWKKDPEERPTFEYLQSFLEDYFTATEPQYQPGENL

Each molecule was assayed against FYN (UniProt P06241) (assay: kinase-Nluc reporter destabilization hit call (1 = scored as downregulated) (binary); higher = compound decreases kinase abundance). Details: K562; 2-18 h.

kinase-Nluc reporter destabilization hit call, inactive:
O=C(N/N=C/c1coc2ccccc2c1=O)c1cccnc1 (10 µM) 0
O=C(Nc1ccc(CN2CCOCC2)cc1)c1ccc(-c2cccc(Cl)c2)o1 (10 µM) 0
NC(=O)c1nnc(N[C@@H]2CCCC[C@@H]2N)nc1Nc1cccc2cc[nH]c12 (10 µM) 0
COc1cc2ncc(-c3ccccc3)nc2cc1OC [Tyrphostin AG1296] (10 µM) 0
O=C(NOCC(O)CO)c1cc(Br)c(F)c(F)c1Nc1ccc(I)cc1F (configuration not stated) (2.5 µM) 0
Cn1cnc(Cn2ccc3ccc(CNCc4[nH]c5ccccc5c4[C@H]4NC(=O)c5ccc(O)cc54)cc32)c1 (10 µM) 0
CC(=O)c1c(C)cc2cccc(O)c2c1O [Nepodin] (10 µM) 0
COc1cc(Nc2ncc(F)c(Nc3ccc4c(n3)N(COP(=O)(O)O)C(=O)C(C)(C)O4)n2)cc(OC)c1OC [Fostamatinib (disodium hexahydrate)] (10 µM) 0
Cc1ccccc1-c1c2nccc(-c3ccc(F)cc3F)c2cc[n+]1[O-] (10 µM) 0
Cn1nccc1Nc1nccc(-c2ccn([C@H](CO)c3ccc(Cl)c(F)c3)c(=O)c2)n1 [Ravoxertinib hydrochloride] (10 µM) 0
Nc1nc(F)nc2c1ncn2[C@@H]1O[C@H](CO)[C@@H](O)[C@@H]1O [Fludarabine] (10 µM) 0
O=C(CSC1=NCCN1)NC1CCCCCC1 [ICCB-19 (hydrochloride)] (2.5 µM) 0

Random excerpt: 2 records from the list.
kinase-Nluc reporter destabilization hit call, inactive:
O=C(NOCC(O)CO)c1cc(Br)c(F)c(F)c1Nc1ccc(I)cc1F (configuration not stated) (2.5 µM) 0
O=C(Nc1ccc(CN2CCOCC2)cc1)c1ccc(-c2cccc(Cl)c2)o1 (10 µM) 0
